# Library screen at single concentrations

Each number is a percent effect as filed. The record does not define 0% and 100%; most values in the screen are far below 50% and negative numbers occur (in some assays of this library far below -100). Compounds were drawn at random from those tested, without regard to their results. Two or more numbers in one place are separate tests of the same structure; such repeats can differ widely.

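Whole-cell growth test on Mycobacterium tuberculosis, read after 4 days in a medium based on cholesterol and the lipid DPPC; the read-out is not stated. Concentration: 50 µM. Direction is inferred from retests: higher values go with more growth inhibition. Size under these conditions: about 69,000 compounds, about 370 of them at 50% or above in at least one test.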

For CC(=O)N1CCN(C(=O)NCCc2ccc(Cl)s2)CC1 the result was -4.771%. Cc1[nH]ncc1C(=O)N1CCCC(c2ccn[nH]2)C1 (stereo not given) read -0.6145%. [H][C@]12CCN(C(=O)NC)CC[C@@]1([H])S(=O)(=O)N(Cc1cccc(Cl)c1)C2 gave -30.1%. With CCS(=O)(=O)CCNCc1cc(O)c2cc(C)cc(C)c2n1 the screen gave 18.73%. For Cc1cc(CN(C)CC2(O)CCCN(CCC3CCCCC3)C2=O)no1 (stereo not given) the result was 69.28%. Cc1cc(C(=O)N(C)CCCn2cccn2)nc(N)n1 gave 1.593%.

Result for O=C(O)C(F)(F)F.O=C(O)C(F)(F)F.c1ccc(N2CCC3(COCCN(Cc4cccs4)C3)C2)nc1 (stereo not given) was 10.09% and 18.11%. CCN(CCn1cccn1)Cc1nc(-c2cccc(C)c2)oc1C gave -10.71%. With CCO[C@H]1CN(C)C[C@@H]1NC(=O)c1cc(C)nc2c(C)cccc12 the screen gave 22.18%. COC(=O)NCC1CCC2(CCNCC2)O1.Cl (stereo not given) read -8.652%. Result for CN(Cc1nnc(-c2cccs2)o1)C(C(N)=O)c1cccc(F)c1 (stereo not given) was -25.73%. With Cc1ocnc1C(=O)Nc1ccc(-c2nnc(N(C)C)o2)cc1 the screen gave 8.6%.

For Cc1ccc(CC(=O)NC(C)C(=O)N2CCS(=O)(=O)CC2)cc1 (stereo not given) the result was -11.93%. COc1ccc(C2Nc3cc(Cl)ccc3C3=NCCN32)cc1O (stereo not given) gave -9.329%. For NC(=O)CN(CC(N)=O)Cc1cccc(Oc2ccccc2)c1 the result was -16.86%. For CN(C)Cc1nn(C)c2c1CN(C(=O)c1ccc[nH]1)C2.O=C(O)C(F)(F)F the result was 2.339%. With O=C(c1cccnc1)N1CCOC(CCCc2ccccc2)C1 (stereo not given) the screen gave 7.78% and 0.6967%. For CN1CC2(CCN(CC3CC3)CC2)COc2ccccc2S1(=O)=O.O=C(O)C(F)(F)F the result was 7.95%.

Cc1oncc1C(=O)NCc1cc(=O)n2c(n1)CN(C(C)C)CCC2.O=C(O)C(F)(F)F gave 7.032%. CC(NC(=O)C1CC1)C(=O)N(C)Cc1ccsc1 (stereo not given) read -8.75%. Cc1nccn1CCC1CCCCN1Cc1ccc(O)cc1Cl (stereo not given) read -18.11% and 6.987%. For CC(C)CN1CCCn2nc(CNC(=O)CCCc3cn[nH]c3)cc2C1 the result was 8.561%. Cn1nnc2c1CCN(Cc1nccs1)C2COCc1ccccc1.O=C(O)C(F)(F)F (stereo not given) read -18.76%. Result for O=c1ccc2c(n1CCN1CCCC1)CCN(c1ncccn1)CC2 was 13.88%.

CNS(=O)(=O)c1cnccc1N1CCN(C(C)C)CC1 read -1.836%. With CCc1cc(=O)n(CC(=O)NCC2CCCO2)c(-c2cccc(F)c2)n1 (stereo not given) the screen gave 7.285%. Result for CC(=O)N1CCOC[C@H](OCC(=O)N(C)C)C1 was -29.79%. O=C1NCC(C(=O)Nc2ccc(=O)n(Cc3ccccc3Cl)c2)N1 (stereo not given) read 17.78%. With COc1cc2cc3c(nc2cc1OC)OCCN(Cc1ccco1)C3 the screen gave 10.93%. For COc1cccc(OCCN2CC[C@@](O)(C3CCOCC3)[C@H](C)C2)c1 the result was 12.38% and 9.285%.

With [H][C@@]12CN(C(=O)CO)C[C@]1([H])C(=O)N(Cc1cccc(F)c1)C2 the screen gave -6.045%. Result for CN(C)CCCN(Cc1ccco1)Cc1ccnn1C1CCCCO1.O=C(O)CC(O)(CC(=O)O)C(=O)O (stereo not given) was -14.46%. For CCn1nc(CC(C)C)cc1C(=O)NCCS(=O)(=O)N(C)C the result was -16.08%. With CCNC(=O)Cc1ccc(NC(=O)NC(CC)c2ccncc2)cc1 (stereo not given) the screen gave -4.522%. COc1cccc(OC)c1-c1c[nH]c(C)n1 read 6.762%. With Cc1nc(N(C)CCN(C)C)c2cnn(C)c2n1 the screen gave -25.39%.

Cc1ncsc1C(=O)NCc1ccnc(N2CCN(C)CC2)c1 read -1.638%. For CNC(=O)c1cc(NC(=O)Nc2cnn(CC(C)C)c2)ccc1F the result was 19.69%. Result for CN(C)C(=O)N1CCC2(CC1)COCCN(c1ncccn1)C2 was 15.65%. NCC1Cc2cc(Cl)cc(-c3cncc(C(=O)N4CCCCC4)n3)c2O1 (stereo not given) read -4.789%. For NS(=O)(=O)NCc1cc(-c2ccc(C(F)(F)F)cc2)n[nH]1 the result was -8.432%. COc1cc(C(=O)NCc2cc(N3CCOCC3)ncn2)ccn1 gave -20.74%.

Cn1cc(C2CN(C(=O)Cc3coc(-c4ccccc4)n3)CCO2)cn1 (stereo not given) read -2.065%. With CC(=O)N1CCCC(c2ccc(C(=O)NC3CCCC3)cn2)C1 (stereo not given) the screen gave -15.53%.

Some entries from above, unchanged:

{"smiles": "CCn1nc(CC(C)C)cc1C(=O)NCCS(=O)(=O)N(C)C", "Percent Effect": -16.08}
{"smiles": "NCC1Cc2cc(Cl)cc(-c3cncc(C(=O)N4CCCCC4)n3)c2O1", "stereo": "stereo not given", "Percent Effect": -4.789}
{"smiles": "CC(=O)N1CCOC[C@H](OCC(=O)N(C)C)C1", "Percent Effect": -29.79}
{"smiles": "Cc1ccc(CC(=O)NC(C)C(=O)N2CCS(=O)(=O)CC2)cc1", "stereo": "stereo not given", "Percent Effect": -11.93}
{"smiles": "Cc1ncsc1C(=O)NCc1ccnc(N2CCN(C)CC2)c1", "Percent Effect": -1.638}

From ChEMBL document CHEMBL3988442, “University of Dundee, Small-Polar-MMV Screening Library” (2021).